Measurements taken from PMC11957390.
Results are given in words; binding and its absence hold for the method and conditions named. Binding seen in cells or lysates may run through a third protein. Some results given as binding are weak or reduced against the parent protein; the word gives no strength. For some assays here: Tags and fused reporters may be left off the sequences shown.

B1: human GFP-IFIT5 (protein, UniProt Q13325 1-482)
chain: MSEIRKDTLKAILLELECHFTWNLLKEDIDLFEVEDTIGQQLEFLTTKSRLALYNLLAYVKHLKGQNKDALECLEQAEEIIQQEHSDKEEVRSLVTWGNYAWVYYHMDQLEEAQKYTGKIGNVCKKLSSPSNYKLECPETDCEKGWALLKFGGKYYQKAKAAFEKALEVEPDNPEFNIGYAITVYRLDDSDREGSVKSFSLGPLRKAVTLNPDNSYIKVFLALKLQDVHAEAEGEKYIEEILDQISSQPYVLRYAAKFYRRKNSWNKALELLKKALEVTPTSSFLHHQMGLCYRAQMIQIKKATHNRPKGKDKLKVDELISSAIFHFKAAMERDSMFAFAYTDLANMYAEGGQYSNAEDIFRKALRLENITDDHKHQIHYHYGRFQEFHRKSENTAIHHYLEALKVKDRSPLRTKLTSALKKLSTKRLCHNALDVQSLSALGFVYKLEGEKRQAAEYYEKAQKIDPENAEFLTALCELRLSI
B2: endogenous IFIT1 (A549) (protein, UniProt P09914 1-478)
chain: MSTNGDDHQVKDSLEQLRCHFTWELSIDDDEMPDLENRVLDQIEFLDTKYSVGIHNLLAYVKHLKGQNEEALKSLKEAENLMQEEHDNQANVRSLVTWGNFAWMYYHMGRLAEAQTYLDKVENICKKLSNPFRYRMECPEIDCEEGWALLKCGGKNYERAKACFEKVLEVDPENPESSAGYAISAYRLDGFKLATKNHKPFSLLPLRQAVRLNPDNGYIKVLLALKLQDEGQEAEGEKYIEEALANMSSQTYVFRYAAKFYRRKGSVDKALELLKKALQETPTSVLLHHQIGLCYKAQMIQIKEATKGQPRGQNREKLDKMIRSAIFHFESAVEKKPTFEVAHLDLARMYIEAGNHRKAEENFQKLLCMKPVVEETMQDIHFHYGRFQEFQKKSDVNAIIHYLKAIKIEQASLTRDKSINSLKKLVLRKLRRKALDLESLSLLGFVYKLEGNMNEALEYYERALRLAADFENSVRQGP
B3: endogenous IFIT2 (A549) (protein, UniProt P09913 1-472)
chain: MSENNKNSLESSLRQLKCHFTWNLMEGENSLDDFEDKVFYRTEFQNREFKATMCNLLAYLKHLKGQNEAALECLRKAEELIQQEHADQAEIRSLVTWGNYAWVYYHMGRLSDVQIYVDKVKHVCEKFSSPYRIESPELDCEEGWTRLKCGGNQNERAKVCFEKALEKKPKNPEFTSGLAIASYRLDNWPPSQNAIDPLRQAIRLNPDNQYLKVLLALKLHKMREEGEEEGEGEKLVEEALEKAPGVTDVLRSAAKFYRRKDEPDKAIELLKKALEYIPNNAYLHCQIGCCYRAKVFQVMNLRENGMYGKRKLLELIGHAVAHLKKADEANDNLFRVCSILASLHALADQYEDAEYYFQKEFSKELTPVAKQLLHLRYGNFQLYQMKCEDKAIHHFIEGVKINQKSREKEKMKDKLQKIAKMRLSKNGADSEALHVLAFLQELNEKMQQADEDSERGLESGSLIPSASSWNGE
B4: endogenous IFIT5 (A549) (protein, UniProt Q13325 1-482)
chain: B1 chain
B5: human GFP-IFIT1 (protein, UniProt P09914 1-478)
chain: B2 chain
B6: human GFP-IFIT2 (protein, UniProt P09913 1-472)
chain: B3 chain

The molecules below were run against Myc-LSDV012 (Lumpy skin disease virus) (assay: co-IP).
In the case of B1, the binding is reported as “binds”.
B2 was tested, and the binding was “binds”.
B3 was tested, and the binding was “binds”.
For B4, the binding was “binds”.
B5 was tested, and the binding was “binds”.
B6 was tested, and the binding was “binds”.

Target: Myc-LSDV012 (Lumpy skin disease virus)
Assay: co-IP
Remark: another data set of the same source
“bovine GFP-IFIT5 (from UniProt F6QAR8 1-482)” was tested, and the binding was “binds”.
In the case of “bovine GFP-IFIT2 (from UniProt F1MQW8 1-463)”, the binding is reported as “binds”.
